# Some results were stated once for a whole list of compounds, not compound by compound.
# Sequences of proteins named here, by UniProt entry; tags and fusion partners are left off. A change or cut given only in a name is not applied to a line headed by its entry.
# UniProt Q9BXC1: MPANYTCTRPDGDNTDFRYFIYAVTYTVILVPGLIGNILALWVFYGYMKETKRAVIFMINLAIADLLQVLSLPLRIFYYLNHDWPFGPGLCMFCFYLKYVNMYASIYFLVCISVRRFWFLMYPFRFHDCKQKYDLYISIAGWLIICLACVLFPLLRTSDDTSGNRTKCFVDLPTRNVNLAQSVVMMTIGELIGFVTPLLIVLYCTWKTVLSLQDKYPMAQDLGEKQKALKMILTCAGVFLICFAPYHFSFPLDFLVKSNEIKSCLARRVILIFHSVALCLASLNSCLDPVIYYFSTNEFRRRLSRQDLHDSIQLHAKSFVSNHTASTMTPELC
# Target: GPR174 (Homo sapiens, UniProt Q9BXC1)
# Assay: CRE-Luc reporter Gs signaling assay with GPR174
# Format: cell-based
# Set-up: host or cells: HEK293 or CHO cell lines (ATCC)
# Conditions: pCRE-Luc reporter
structure (smiles),measurement,value
O=C1CCCC2=C1C(c1ccc([N+](=O)[O-])cc1)C1=C(N2)c2ccccc2C1=O (stereo not shown) [compound 38],"Human GPR174 CRE Activity: nature of the compound (IA, antagonist, NM)",GPR174 inverse agonists

# Source: patent US20200345725A1, “Methods and Compositions for Treating Cancer” (Omeros Corporation, priority 2019, published 2020)
